Reference: article PMC3707915

Protein sequences, listed by entry. Tags and fused reporters are not part of them. Lines headed by an entry give the natural chain unless they say otherwise; changes in a name come on top.
UniProt P39938: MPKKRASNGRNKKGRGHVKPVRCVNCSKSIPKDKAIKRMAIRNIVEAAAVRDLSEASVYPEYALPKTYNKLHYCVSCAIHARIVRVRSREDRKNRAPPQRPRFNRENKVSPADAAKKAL
UniProt P53742: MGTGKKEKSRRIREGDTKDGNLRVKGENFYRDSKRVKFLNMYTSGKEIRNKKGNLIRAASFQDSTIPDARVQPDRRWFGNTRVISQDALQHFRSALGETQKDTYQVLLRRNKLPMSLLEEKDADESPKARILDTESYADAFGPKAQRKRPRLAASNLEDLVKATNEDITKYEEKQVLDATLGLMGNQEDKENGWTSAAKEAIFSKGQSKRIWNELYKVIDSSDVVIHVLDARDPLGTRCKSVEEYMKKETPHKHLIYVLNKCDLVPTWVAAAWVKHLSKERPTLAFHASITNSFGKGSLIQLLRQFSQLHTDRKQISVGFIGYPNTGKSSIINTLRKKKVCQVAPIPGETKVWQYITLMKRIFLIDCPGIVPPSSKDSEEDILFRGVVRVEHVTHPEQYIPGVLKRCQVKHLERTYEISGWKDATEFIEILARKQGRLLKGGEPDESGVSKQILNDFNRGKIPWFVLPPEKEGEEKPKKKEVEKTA
UniProt P05747: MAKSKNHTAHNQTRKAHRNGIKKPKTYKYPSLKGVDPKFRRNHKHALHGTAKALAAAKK
UniProt Q12019: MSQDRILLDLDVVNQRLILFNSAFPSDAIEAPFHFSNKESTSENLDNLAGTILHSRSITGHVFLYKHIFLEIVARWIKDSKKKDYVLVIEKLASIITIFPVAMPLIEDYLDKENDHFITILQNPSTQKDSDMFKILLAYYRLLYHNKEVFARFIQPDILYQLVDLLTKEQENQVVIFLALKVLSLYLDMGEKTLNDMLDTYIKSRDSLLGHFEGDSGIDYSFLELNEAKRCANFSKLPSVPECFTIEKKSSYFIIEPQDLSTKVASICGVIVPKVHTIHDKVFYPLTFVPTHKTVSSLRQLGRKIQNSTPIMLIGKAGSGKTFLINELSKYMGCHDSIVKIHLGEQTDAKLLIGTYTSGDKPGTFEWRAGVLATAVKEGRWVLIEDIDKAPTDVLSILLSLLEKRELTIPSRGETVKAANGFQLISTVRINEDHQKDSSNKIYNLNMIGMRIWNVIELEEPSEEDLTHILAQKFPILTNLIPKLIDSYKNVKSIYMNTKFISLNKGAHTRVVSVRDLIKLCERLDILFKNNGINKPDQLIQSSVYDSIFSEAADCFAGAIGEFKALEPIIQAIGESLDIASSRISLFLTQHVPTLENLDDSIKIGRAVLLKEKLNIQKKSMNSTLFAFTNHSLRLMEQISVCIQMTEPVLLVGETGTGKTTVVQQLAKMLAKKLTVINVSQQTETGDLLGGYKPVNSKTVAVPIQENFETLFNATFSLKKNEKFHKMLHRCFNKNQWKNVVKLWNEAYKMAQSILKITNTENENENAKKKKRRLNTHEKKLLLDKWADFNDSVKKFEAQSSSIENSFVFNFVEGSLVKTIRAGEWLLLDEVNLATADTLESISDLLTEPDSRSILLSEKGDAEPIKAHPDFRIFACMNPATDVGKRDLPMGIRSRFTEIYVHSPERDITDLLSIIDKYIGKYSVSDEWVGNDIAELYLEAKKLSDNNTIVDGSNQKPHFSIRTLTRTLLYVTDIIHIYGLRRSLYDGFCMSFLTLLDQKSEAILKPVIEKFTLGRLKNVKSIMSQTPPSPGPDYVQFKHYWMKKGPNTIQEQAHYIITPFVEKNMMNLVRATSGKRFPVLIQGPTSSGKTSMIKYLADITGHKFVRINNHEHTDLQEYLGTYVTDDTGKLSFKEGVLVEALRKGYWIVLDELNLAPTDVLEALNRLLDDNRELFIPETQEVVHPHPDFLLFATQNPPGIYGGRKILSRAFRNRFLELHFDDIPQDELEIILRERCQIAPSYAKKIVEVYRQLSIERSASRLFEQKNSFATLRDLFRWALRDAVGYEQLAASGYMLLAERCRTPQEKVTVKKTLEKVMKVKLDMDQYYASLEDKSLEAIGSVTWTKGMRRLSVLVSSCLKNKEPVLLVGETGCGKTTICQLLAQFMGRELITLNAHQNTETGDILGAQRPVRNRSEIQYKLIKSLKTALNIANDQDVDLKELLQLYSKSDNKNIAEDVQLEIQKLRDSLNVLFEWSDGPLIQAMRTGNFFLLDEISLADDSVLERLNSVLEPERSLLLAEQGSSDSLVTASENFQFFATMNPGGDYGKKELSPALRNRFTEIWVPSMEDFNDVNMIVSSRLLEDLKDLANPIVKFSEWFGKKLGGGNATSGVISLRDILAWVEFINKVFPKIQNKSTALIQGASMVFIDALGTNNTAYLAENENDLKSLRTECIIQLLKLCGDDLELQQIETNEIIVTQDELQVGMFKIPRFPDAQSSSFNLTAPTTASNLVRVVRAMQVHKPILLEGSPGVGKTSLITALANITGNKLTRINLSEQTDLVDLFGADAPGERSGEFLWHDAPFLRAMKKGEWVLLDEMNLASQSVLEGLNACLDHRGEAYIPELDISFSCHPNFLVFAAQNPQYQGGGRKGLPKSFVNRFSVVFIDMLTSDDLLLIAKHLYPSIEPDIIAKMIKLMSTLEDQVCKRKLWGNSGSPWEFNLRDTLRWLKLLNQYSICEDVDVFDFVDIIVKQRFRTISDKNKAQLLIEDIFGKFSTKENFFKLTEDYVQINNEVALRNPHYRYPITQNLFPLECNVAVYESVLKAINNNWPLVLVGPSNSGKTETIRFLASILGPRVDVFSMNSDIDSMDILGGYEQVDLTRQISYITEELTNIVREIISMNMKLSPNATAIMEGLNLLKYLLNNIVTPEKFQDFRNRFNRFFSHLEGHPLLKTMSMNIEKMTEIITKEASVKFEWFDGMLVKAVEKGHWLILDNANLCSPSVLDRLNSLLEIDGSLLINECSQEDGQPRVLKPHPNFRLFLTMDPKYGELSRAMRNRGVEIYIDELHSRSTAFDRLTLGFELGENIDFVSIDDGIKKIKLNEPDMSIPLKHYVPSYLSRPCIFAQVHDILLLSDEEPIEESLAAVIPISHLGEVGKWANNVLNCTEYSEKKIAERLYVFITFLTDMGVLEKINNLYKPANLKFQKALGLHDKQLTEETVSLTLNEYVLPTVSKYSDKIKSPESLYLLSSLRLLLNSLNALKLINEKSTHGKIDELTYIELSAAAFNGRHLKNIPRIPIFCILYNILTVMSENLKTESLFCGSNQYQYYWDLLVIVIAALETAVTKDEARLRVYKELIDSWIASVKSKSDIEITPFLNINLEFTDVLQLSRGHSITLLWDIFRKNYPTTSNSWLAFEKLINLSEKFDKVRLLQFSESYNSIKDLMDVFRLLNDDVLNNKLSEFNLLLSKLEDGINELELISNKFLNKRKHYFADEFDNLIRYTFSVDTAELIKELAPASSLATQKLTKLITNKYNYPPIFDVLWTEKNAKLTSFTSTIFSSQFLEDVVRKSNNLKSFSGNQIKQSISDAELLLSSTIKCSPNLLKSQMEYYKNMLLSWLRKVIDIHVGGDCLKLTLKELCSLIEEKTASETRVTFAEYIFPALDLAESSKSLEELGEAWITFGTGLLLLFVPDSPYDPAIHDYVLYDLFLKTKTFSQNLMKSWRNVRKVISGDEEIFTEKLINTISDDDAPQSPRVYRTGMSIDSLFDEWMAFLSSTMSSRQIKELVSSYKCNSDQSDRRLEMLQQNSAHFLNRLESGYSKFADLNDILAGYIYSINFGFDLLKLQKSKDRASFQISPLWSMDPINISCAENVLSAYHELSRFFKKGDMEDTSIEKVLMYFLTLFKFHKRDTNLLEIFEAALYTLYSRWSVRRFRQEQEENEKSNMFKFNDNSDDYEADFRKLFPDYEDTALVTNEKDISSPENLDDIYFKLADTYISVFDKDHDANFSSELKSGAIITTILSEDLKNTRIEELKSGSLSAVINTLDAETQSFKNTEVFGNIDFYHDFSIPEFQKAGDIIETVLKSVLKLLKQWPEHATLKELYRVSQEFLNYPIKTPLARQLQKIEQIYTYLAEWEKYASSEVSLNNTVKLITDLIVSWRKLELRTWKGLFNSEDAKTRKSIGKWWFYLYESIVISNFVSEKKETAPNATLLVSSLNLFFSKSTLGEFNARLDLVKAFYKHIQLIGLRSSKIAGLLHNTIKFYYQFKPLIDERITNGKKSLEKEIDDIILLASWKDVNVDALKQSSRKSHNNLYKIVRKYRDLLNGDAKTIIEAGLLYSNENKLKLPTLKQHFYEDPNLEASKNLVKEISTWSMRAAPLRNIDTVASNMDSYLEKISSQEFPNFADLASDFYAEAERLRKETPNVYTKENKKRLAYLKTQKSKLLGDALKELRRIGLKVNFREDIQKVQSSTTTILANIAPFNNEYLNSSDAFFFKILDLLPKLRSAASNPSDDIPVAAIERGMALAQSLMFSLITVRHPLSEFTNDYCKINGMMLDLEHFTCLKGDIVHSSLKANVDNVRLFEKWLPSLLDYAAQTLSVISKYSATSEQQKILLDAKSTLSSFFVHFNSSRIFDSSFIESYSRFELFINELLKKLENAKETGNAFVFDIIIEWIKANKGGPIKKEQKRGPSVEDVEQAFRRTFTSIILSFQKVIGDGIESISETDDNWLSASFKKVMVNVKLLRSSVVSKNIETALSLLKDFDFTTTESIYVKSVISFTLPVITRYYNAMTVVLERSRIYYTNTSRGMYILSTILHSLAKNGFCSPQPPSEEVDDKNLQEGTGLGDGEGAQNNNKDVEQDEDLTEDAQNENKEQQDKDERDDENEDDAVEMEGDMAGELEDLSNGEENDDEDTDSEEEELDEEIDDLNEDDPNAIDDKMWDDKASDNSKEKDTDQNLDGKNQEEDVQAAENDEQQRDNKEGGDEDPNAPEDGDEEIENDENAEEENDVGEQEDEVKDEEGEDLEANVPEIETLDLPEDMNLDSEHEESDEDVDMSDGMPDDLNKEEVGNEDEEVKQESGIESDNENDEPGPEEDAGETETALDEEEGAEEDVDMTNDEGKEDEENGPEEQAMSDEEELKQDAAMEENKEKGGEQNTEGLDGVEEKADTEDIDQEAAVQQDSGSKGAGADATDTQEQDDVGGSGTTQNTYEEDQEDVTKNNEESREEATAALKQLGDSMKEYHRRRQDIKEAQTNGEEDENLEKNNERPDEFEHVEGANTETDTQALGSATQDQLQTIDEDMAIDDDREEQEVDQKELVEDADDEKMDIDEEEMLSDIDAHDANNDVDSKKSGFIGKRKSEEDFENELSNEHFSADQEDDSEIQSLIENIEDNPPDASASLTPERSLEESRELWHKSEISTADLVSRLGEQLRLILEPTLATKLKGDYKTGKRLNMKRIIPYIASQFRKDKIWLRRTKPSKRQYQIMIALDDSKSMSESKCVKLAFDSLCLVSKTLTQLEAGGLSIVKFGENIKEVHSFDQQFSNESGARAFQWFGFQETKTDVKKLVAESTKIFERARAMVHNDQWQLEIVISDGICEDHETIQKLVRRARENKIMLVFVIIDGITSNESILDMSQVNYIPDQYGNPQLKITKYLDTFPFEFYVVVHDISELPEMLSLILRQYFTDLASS
UniProt Q07915: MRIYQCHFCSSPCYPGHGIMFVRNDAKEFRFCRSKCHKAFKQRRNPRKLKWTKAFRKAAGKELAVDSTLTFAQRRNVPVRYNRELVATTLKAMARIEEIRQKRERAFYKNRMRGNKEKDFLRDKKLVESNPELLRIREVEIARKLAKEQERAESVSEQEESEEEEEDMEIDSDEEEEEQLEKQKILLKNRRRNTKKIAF
UniProt P0CX27: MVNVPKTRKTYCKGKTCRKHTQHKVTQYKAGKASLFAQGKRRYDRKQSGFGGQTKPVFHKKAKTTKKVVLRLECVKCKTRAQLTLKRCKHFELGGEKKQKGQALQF
UniProt Q12522: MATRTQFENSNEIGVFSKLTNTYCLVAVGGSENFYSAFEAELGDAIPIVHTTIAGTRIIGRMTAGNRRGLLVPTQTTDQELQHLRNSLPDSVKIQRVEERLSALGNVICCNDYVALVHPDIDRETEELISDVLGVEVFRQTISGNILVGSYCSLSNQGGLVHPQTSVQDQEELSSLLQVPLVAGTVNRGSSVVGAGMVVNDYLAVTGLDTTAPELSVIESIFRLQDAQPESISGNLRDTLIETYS

T1: Arx1-TAP (S. cerevisiae) (UniProt Q03862)
T1 sequence: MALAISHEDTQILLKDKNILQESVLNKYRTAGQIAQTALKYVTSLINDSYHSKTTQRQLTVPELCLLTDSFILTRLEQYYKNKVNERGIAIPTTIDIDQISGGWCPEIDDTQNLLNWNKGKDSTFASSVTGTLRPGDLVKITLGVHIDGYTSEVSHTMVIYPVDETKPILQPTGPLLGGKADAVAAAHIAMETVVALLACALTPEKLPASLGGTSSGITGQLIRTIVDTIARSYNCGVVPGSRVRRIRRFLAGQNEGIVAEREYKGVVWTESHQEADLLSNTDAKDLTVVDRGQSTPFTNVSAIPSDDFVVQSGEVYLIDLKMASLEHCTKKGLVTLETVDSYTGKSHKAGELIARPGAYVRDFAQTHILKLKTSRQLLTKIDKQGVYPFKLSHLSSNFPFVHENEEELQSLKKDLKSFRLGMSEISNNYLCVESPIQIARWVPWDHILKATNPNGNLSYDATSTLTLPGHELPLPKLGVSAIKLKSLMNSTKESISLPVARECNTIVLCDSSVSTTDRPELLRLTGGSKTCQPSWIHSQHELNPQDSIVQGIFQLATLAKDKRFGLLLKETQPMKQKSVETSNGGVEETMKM

T2: Nog1-TAP (S. cerevisiae) (UniProt Q02892)
T2 sequence: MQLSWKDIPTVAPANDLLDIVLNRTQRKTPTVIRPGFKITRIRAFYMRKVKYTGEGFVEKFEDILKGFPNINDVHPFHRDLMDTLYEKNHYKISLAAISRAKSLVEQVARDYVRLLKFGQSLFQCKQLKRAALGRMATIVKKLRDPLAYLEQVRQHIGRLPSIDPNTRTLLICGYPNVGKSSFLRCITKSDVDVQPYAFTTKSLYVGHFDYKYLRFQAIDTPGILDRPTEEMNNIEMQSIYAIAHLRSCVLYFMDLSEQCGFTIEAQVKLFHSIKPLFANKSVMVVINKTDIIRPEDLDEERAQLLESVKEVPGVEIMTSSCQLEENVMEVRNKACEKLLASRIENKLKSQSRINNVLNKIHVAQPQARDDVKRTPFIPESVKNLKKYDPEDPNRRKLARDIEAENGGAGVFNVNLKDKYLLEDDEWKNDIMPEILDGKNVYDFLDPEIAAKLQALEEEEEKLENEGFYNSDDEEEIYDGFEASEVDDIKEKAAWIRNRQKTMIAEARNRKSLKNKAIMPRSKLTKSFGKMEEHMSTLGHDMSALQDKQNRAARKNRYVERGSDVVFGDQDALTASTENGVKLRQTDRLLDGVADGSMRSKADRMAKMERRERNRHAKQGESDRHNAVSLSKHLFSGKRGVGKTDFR

T3: Rsa4-TAP (S. cerevisiae) (UniProt P25382)
T3 sequence: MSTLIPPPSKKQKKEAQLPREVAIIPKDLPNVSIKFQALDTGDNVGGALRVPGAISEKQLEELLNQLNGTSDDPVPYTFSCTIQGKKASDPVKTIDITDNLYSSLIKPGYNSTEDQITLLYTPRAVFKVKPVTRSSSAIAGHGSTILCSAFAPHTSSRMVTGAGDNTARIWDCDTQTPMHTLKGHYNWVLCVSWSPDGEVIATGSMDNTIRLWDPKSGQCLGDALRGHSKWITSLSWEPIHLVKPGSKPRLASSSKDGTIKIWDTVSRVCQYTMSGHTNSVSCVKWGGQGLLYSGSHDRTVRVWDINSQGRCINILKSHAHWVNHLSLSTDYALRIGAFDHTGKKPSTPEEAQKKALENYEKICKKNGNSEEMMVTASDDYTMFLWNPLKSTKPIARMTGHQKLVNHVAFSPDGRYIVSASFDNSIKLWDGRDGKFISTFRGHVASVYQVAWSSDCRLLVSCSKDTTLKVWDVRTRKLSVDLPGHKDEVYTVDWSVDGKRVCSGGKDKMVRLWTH


Columns and labels:
[1] = molecular target: rpS26-FLAG (S. cerevisiae) (UniProt P39938); assay: affinity purification with mass spectrometry; rpS26-FLAG and associated 80S ribosomes purified in one step from total yeast cellular extract on anti-FLAG M2 sepharose beads, 1 h at 4°C, MB buffer with 0.5% Triton X-100 and 0.1% Tween; eluates compared pair wise with LSU precursor particles by semi-quantitative LC-MS/MS with iTRAQ reagents
Arx1-TAP (S. cerevisiae) [2] = molecular target: T1, Arx1-TAP (S. cerevisiae); assay: affinity purification with mass spectrometry; TAP-tagged LSU biogenesis factor and associated pre-ribosomal particles purified in one step from total yeast cellular extract on rabbit IgG coupled magnetic beads, 1 h at 4°C, MB buffer (20 mM Tris HCl pH 8, 200 or 300 mM KCl, 5 mM MgOAc) with 0.5% Triton X-100 and 0.1% Tween 20; eluates compared pair wise by semi-quantitative LC-MS/MS with iTRAQ reagents; for Nog1-, Nog2- and Rsa4-TAP wild type against strains in which RPL25, RPL2, RPL43 or RPL21 was shut down for 4 h in glucose
Nog2-TAP (S. cerevisiae) [3] = molecular target: Nog2-TAP (S. cerevisiae) (UniProt P53742); assay: as above
Nog1-TAP (S. cerevisiae) = molecular target: T2, Nog1-TAP (S. cerevisiae); assay: as above
Nog2-TAP (S. cerevisiae) [4] = molecular target: Nog2-TAP (S. cerevisiae) (UniProt P53742); assay: as above; remark: listed apart in the source
Rsa4-TAP (S. cerevisiae) = molecular target: T3, Rsa4-TAP (S. cerevisiae); assay: as above
Arx1-TAP (S. cerevisiae) [5] = molecular target: T1, Arx1-TAP (S. cerevisiae); assay: as above; remark: listed apart in the source

Row | Molecule | binding [1] | binding (Nog2-TAP (S. cerevisiae) [3]) | binding (Nog1-TAP (S. cerevisiae)) | binding (Nog2-TAP (S. cerevisiae) [4]) | binding (Rsa4-TAP (S. cerevisiae)) | also measured
1 | rpL29 (from UniProt P05747 1-59) | binds | binds | – | – | – | binding (Arx1-TAP (S. cerevisiae) [2]): binds
2 | Rea1 (from UniProt Q12019 1-4910) | – | binds | – | – | – | –
3 | Rlp24 (from UniProt Q07915 1-199) | – | binds | – | – | – | –
4 | Rlp7 (protein, UniProt P40693 1-322) MSSTQDSKAQTLNSNPEILLRKRRNADRTRIERQELAKKKREEQIKKKRSNKNKFVRAESIVAKTLATSREKERIKRVSILEDKKAKNETQHIASGKDFILKITEKANGAEENSVDLEETEEEEDDGLIREKTTYDGKPALLFIVRVRGPLAVNIPNKAFKILSLLRLVETNTGVFVKLTKNVYPLLKVIAPYVVIGKPSLSSIRSLIQKRGRIIYKGENEAEPHEIVLNDNNIVEEQLGDHGIICVEDIIHEIATMGESFSVCNFFLQPFKLNREVSGFGSLNRLRKIKQREAESRTRQFSNAATAPVIEVDIDSLLAKLN | – | – | binds | binds | binds | –

The next lines start with results.

Row | binding [1] | binding (Nog2-TAP (S. cerevisiae) [3]) | binding (Nog1-TAP (S. cerevisiae)) | binding (Nog2-TAP (S. cerevisiae) [4]) | binding (Rsa4-TAP (S. cerevisiae)) | Molecule | also measured
5 | binds | – | – | – | – | rpL42 (from UniProt P0CX27 1-106) | binding (Arx1-TAP (S. cerevisiae) [2]): binds
6 | – | binds | – | – | – | Tif6 (from UniProt Q12522 1-245) | –
7 | – | – | binds | binds | binds | Nsa3 (protein, UniProt P38779 1-376) MAKKSNSKKSTPVSTPSKEKKKVIEKKSSTAIPRERVIKAVNELIKFTSKPQDENNEEGNNGKKNLLEDDEEELKKDLQLIVVNNKSFTGTSKSFKLKLLNVKHSFYKPWKEASATAVKDFKVLLILKDSDIKKVSEDDLFDQLDSEGIKVDEIICGKDLKTVYKAYEARNAFISQFSLILADDSIVTSLPKLMGGKAYNKVETTPISIRTHANKEFSLTTLTNNIKKVYMNQLPVKLPRGTTLNVHLGNLEWLRPEEFVDNVELISEQLIKAYQIRSIFIKTNRSPVLPLYYNQDVLDELEAKKDKIEETHEDDMVTIDGVQVHLSTFNKGLMEIANPSELGSIFSKQINNAKKRSSSELEKESSESEAVKKAKS | –
8 | – | – | binds | binds | binds | Erb1 (protein, UniProt Q04660 1-807) MMAKNNKTTEAKMSKKRAASEESDVEEDEDKLLSVDGLIDAEASESDEDDDEYESAVEEKESSSDKEAQDDSDDDSDAELNKLLAEEEGDGEEDYDSSEFSDDTTSLTDRLSGVKLQTIVDPNIYSKYADGSDRIIKPEINPVYDSDDSDAETQNTIGNIPLSAYDEMPHIGYDINGKRIMRPAKGSALDQLLDSIELPEGWTGLLDKNSGSSLNLTKEELELISKIQRNEQTDDSINPYEPLIDWFTRHEEVMPLTAVPEPKRRFVPSKNEAKRVMKIVRAIREGRIIPPKKLKEMKEKEKIENYQYDLWGDSTETNDHVMHLRAPKLPPPTNEESYNPPEEYLLSPEEKEAWENTEYSERERNFIPQKYSALRKVPGYGESIRERFERSLDLYLAPRVRKNKLNIDPNSLIPELPSPKDLRPFPIRCSTIYAGHKGKVRTLSIDPSGLWLATGSDDGTVRVWEILTGREVYRTTLIDDEENPDYHIECIEWNPDANNGILAVAVGENIHLIVPPIFGYDIENNGKTKIEDGFGYDTFGTVKKSNLEVNENGDGDEDGENESAKNAVKKQVAQWNKPSQKQLEKDICITISCKKTVKKLSWHRKGDYFVTVQPDSGNTSVLIHQVSKHLTQSPFKKSKGIIMDAKFHPFKPQLFVCSQRYVRIYDLSQQILVKKLLPGARWLSKIDIHPRGDNLIASSFDKRVLWHDLDLASTPYKTLRYHEKAVRSVNFHKKLPLFSSAADDGTIHVFHATVYDDMMKNPMIVPLKKLTGHKVINSLGVLDAIWHPREAWLFSAGADNTARLWTT | –
9 | binds | – | binds | binds | binds | rpL10 (protein, UniProt P41805 1-221) MARRPARCYRYQKNKPYPKSRYNRAVPDSKIRIYDLGKKKATVDEFPLCVHLVSNELEQLSSEALEAARICANKYMTTVSGRDAFHLRVRVHPFHVLRINKMLSCAGADRLQQGMRGAWGKPHGLAARVDIGQIIFSVRTKDSNKDVVVEGLRRARYKFPGQQKIILSKKWGFTNLDRPEYLKKREAGEVKDDGAFVKFLSKKGSLENNIREFPEYFAAQA | binding (Arx1-TAP (S. cerevisiae) [5]): binds

Like-named read-outs stand apart in the source and are kept apart here. No constants are given. Whether binding was seen depends on the method and setting. In cells and extracts the contact can be indirect. These calls come from enrichment with a bait or labelling near it, and not all partners need be listed.
